Measurements reported in PubChem BioAssay AID1259405 (NCATS, 2018).

Screen: 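Silenced genes that increase secreted GFP made by CHO cells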 (primary screen)
Cell system: Chinese hamster CHO-K1 ovary cells with stable secreted eGFP expression
Reagent: single siRNA against mouse genes, 0.8 pmol siRNA per well (2 µl of 400 nM stock)
Timing: 3 days
Measurement: 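Per-well intracellular GFP measured by laser scanning cytometry, plus viability from ATP luminescence, each relative to plate median of non-targeting control wells, in %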
Reading the numbers: GFP, % of control: higher = more GFP per well, higher productivity; viability (ATP), % of control: higher = more viable cells (more ATP)
Call rule: 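a knock-down is called active if GFP reaches 120% or more of non-targeting control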
The whole screen tested about 50,000 reagents; below is a random part of them. About 4,000 of them (8%) were called active. 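Mouse siRNA library applied to hamster cells; one well for each siRNA.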 The numbers tell different reagents against one gene apart. No sequences are given here.

| gene | reagent | GFP, % of control | viability (ATP), % of control | outcome |
| --- | --- | --- | --- | --- |
| Cd300c2 | 1 | 136 | 86.2 | active |
| Cd300c2 | 2 | 74.3 | 69 | inactive |
| Cd300c2 | 3 | 146 | 86 | active |
| Arhgap5 | 1 | 119 | 94 | inactive |
| Arhgap5 | 2 | 73.4 | 88.4 | inactive |
| Arhgap5 | 3 | 61.3 | 45.6 | inactive |
| Fbln2 | 1 | 104 | 68.5 | inactive |
| Fbln2 | 2 | 115 | 101 | inactive |
| Fbln2 | 3 | 118 | 63 | inactive |
| Pde10a | 1 | 54 | 55 | inactive |
| Pde10a | 2 | 53.4 | 56 | inactive |
| Pde10a | 3 | 105 | 77.5 | inactive |
| Prr15 | 1 | 47.2 | 77.7 | inactive |
| Prr15 | 2 | 97.5 | 84.5 | inactive |
| Prr15 | 3 | 49.6 | 71.7 | inactive |
| Vstm2a | 1 | 89.1 | 85.3 | inactive |
| Vstm2a | 2 | 67.8 | 93 | inactive |
| Vstm2a | 3 | 83.2 | 91.8 | inactive |
| E230025N22Rik | 1 | 76.1 | 85.4 | inactive |
| E230025N22Rik | 2 | 80.7 | 95.3 | inactive |
| E230025N22Rik | 3 | 54.7 | 40.5 | inactive |
| Cep78 | 1 | 93.1 | 83.6 | inactive |
| Cep78 | 2 | 136 | 102 | active |
| Cep78 | 3 | 124 | 103 | active |
| Psg26 | 1 | 79.9 | 75.2 | inactive |
| Psg26 | 2 | 90 | 65.3 | inactive |
| Psg26 | 3 | 101 | 93.7 | inactive |
| Rab4a | 1 | 225 | 108 | active |
| Rab4a | 2 | 90 | 76 | inactive |
| Rab4a | 3 | 91.2 | 74.1 | inactive |
| Zdhhc20 | 1 | 68.6 | 63.1 | inactive |
| Zdhhc20 | 2 | 78.1 | 98.1 | inactive |
| Zdhhc20 | 3 | 91.6 | 117 | inactive |
| Ifi44 | 1 | 112 | 91.5 | inactive |
| Ifi44 | 2 | 53.7 | 47.2 | inactive |
| Ifi44 | 3 | 85.7 | 78.3 | inactive |
| Ikzf1 | 1 | 106 | 107 | inactive |
| Ikzf1 | 2 | 82.1 | 79.7 | inactive |
| Akap8l | 1 | 76.9 | 88.4 | inactive |
| Akap8l | 2 | 85.8 | 86 | inactive |
| Zfand3 | 1 | 80.7 | 71.2 | inactive |
| Zfand3 | 2 | 88.8 | 151 | inactive |
| Zfand3 | 3 | 141 | 148 | active |
| Calcr | 1 | 57.7 | 41.5 | inactive |
| Calcr | 2 | 84.9 | 88.1 | inactive |
| Calcr | 3 | 95.6 | 68.8 | inactive |
| Or8d1b | 1 | 43.4 | 54.3 | inactive |
| Or8d1b | 2 | 101 | 82.5 | inactive |
| Or8d1b | 3 | 81.6 | 121 | inactive |
| Spata31f3 | 1 | 62.2 | 60.6 | inactive |
| Spata31f3 | 2 | 76.3 | 73 | inactive |
| Spata31f3 | 3 | 113 | 117 | inactive |
| Or6c1 | 1 | 90.5 | 81.6 | inactive |
| Or6c1 | 2 | 37.4 | 22.6 | inactive |
| Or6c1 | 3 | 88.2 | 64.7 | inactive |
| Kif6 | 1 | 67.8 | 65.9 | inactive |
| Kif6 | 2 | 68.6 | 78.2 | inactive |
| Brwd1 | 1 | 85 | 85.1 | inactive |
| Brwd1 | 2 | 99.7 | 92.7 | inactive |
| Brwd1 | 3 | 94.3 | 83 | inactive |
| Mug2 | 1 | 88 | 98.1 | inactive |
| Mug2 | 2 | 89.1 | 67.2 | inactive |
| Mug2 | 3 | 78.2 | 95.4 | inactive |
| Snrnp35 | 1 | 24.9 | 35.4 | inactive |
| Snrnp35 | 2 | 75.8 | 64.2 | inactive |
| Snrnp35 | 3 | 105 | 94.8 | inactive |
| Dsg1c | 1 | 61.5 | 47.6 | inactive |
| Dsg1c | 2 | 68.9 | 89.4 | inactive |
| Dsg1c | 3 | 50.8 | 44.3 | inactive |
| Gm5478 | 1 | 66.2 | 54.4 | inactive |
| Gm5478 | 2 | 39.3 | 30.5 | inactive |
| Gm5478 | 3 | 74.3 | 83 | inactive |
| Vmn1r82 | 1 | 17.8 | 22.5 | inactive |
| Vmn1r82 | 2 | 69.8 | 82.8 | inactive |
| Vmn1r82 | 3 | 87.4 | 86.2 | inactive |
| Hnrnpc | 1 | 88.6 | 108 | inactive |
| Hnrnpc | 2 | 102 | 100 | inactive |
| Hnrnpc | 3 | 105 | 84.3 | inactive |
| Dpysl4 | 1 | 109 | 97.7 | inactive |
| Dpysl4 | 2 | 101 | 124 | inactive |
| Dpysl4 | 3 | 39 | 51.3 | inactive |
| Mcm4 | 1 | 74.3 | 85.4 | inactive |
| Mcm4 | 2 | 70.7 | 75.6 | inactive |
| Mcm4 | 3 | 76.1 | 28.7 | inactive |

Called active, among the entries above:
| gene | reagent | GFP, % of control | viability (ATP), % of control | outcome |
| --- | --- | --- | --- | --- |
| Cd300c2 | 1 | 136 | 86.2 | active |
| Cd300c2 | 3 | 146 | 86 | active |
| Cep78 | 2 | 136 | 102 | active |
| Cep78 | 3 | 124 | 103 | active |
| Rab4a | 1 | 225 | 108 | active |
| Zfand3 | 3 | 141 | 148 | active |
